Measured values: patent publication US20070258982A1
Positions count from the first letter of the chain named. These are yes or no findings as the source states them, for the method shown. Binding can be weak; no strength is given.

B1: 356A11 human monoclonal anti-IL-22 antibody (Examples 10, 11, 14, 15) (antibody, V domains shown)
VH: QVQLVQSGAEVKKPGASVKVSCKASGYTFTNYYMHWVRQAPGQGLEWVGWINPYTGSAFYAQKFRGRVTMTRDTSISTAYMELSRLRSDDTAVYYCAREPEKFDSDDSDVWGRGTLVTVSS
VL: QAVLTQPPSVSGAPGQRVTISCTGSSSNIGAGYGVHWYQQLPGTAPKLLIYGDSNRPSGVPDRFSGSKSGTSASLAITGLQAEDEADYYCQSYDNSLSGYVFGGGTQLTVLG
B2: 355E04 IgG (germlined) (antibody, V domains shown)
VH: B1 VH with N31H, S57G, R65Q, D106P, D107N, S108A, D109E, V110I
VL: B1 VL with D53N, N95S
B3: 356A11 IgG (germlined; Tables 6 and 9) (antibody, V domains shown)
VH: B1 VH
VL: B1 VL
B4: 355B06 IgG (germlined) (antibody, V domains shown)
VH: B1 VH with N31D, D104G, S105E, D106S, D107S, S108G, D109Q, V110L
VL: B1 VL with N95S, S96G
B5: 368D04 IgG (non-germlined) (antibody, V domains shown)
VH: EVQLVESGGGVVRPGGSLRLSCAASGFTFDDYGMNWVRQAPGKGLEWVSGVNWNGGTRDYAASVKGRFTISRDNAKNSLYLQMNSLRAEDTALYYCARGWYSGAAWNMGYWGRGTLVTVSS
VL: QAVLTQPSSVSGSPGQSITISCTGASGDVGAYNFVSWYQQHPGKTPKLIIYDVNKRPSGVSNRFSGSKSGNTASLTISGLQAEDESDYYCASLVSDFSVVFGGGTKVTVLG
B6: 062G05 IgG (non-germlined) (antibody, V domains shown)
VH: QVQLVESGAEVKKPGASVKVSCKASGYTFTSYGISWVRQAPGQGLEWMGWISAYTGNTNYAQKFQGRVTMTTDTSTSTAYMELRSLRSDDTAVYYCARDRGYYDAFDIWGQGTLVTVSS
VL: DIQMTQSPSTLSASIGDRVTITCRASEGIYHWLAWYQQKPGKAPKLLIYKASSLASGAPSRFSGSGFGTDFTLTISSLQPDDFATYYCQQMGEWKAAFGGGTKLEIKR
B7: 354A08 IgG (germlined) (antibody, V domains shown)
VH: B1 VH with N31D, S57G, K102R, D104G, S105D, D106S, D107T, S108G, D109Q
VL: B1 VL with D53N, Q91Y, S92H, Y93W, N95K, S96E, L97Q
B8: 087B03 IgG (germlined) (antibody, V domains shown)
VH: B5 VH with Y95H
VL: B5 VL with V3A, S8A, T45A, S86A, A91S, L93Y, V94T, D96T, V107L
B9: 367D04 IgG (non-germlined) (antibody, V domains shown)
VH: B5 VH with A104S, A105P, N107S, M108L, Y110H
VL: B5 VL with I18V, G79R, A91S, L93Y, V94T, D96R, F97Y, S98T, V99T, V100E
B10: 375G06 IgG (non-germlined) (antibody, V domains shown)
VH: EVQLVQSGAEVKKPGASVKVSCQASGYTFSDYYIHWVRQTPGQGFEWMGWVNPDTGGTRYAQKFQGWVTMTRDMSNTTAYMELPRLRDDDTAVYYCARDLTGYDYYDRWGQGTLVTVSS
VL: QSVLTQPPSMSVAPGKTATITCGGNNFRNKRVHWYQQRPGQAPVLVIYYDSDRPSGIPERFSGSRSGNTATLTISRVEAGDEADFYCQVWDFLADEAMFGGGTKLTVL
B11: 376B10 IgG (non-germlined) (antibody, V domains shown)
VH: B10 VH with R85G, Y105Q, D107T, R108A
VL: QSVLTQPPSVSVAPGKTATITCGGNNFRNKRVHWYQQRPGQAPVLVIYYDSDRPSGIPERFSGSRSGNTATLTISRVEAGDEADFYCSTFDPFTDRPLFGGGTKLTVLG
B12: 166B06 IgG (germlined) (antibody, V domains shown)
VH: QVQLVQSGAEVKKPGASVKVSCKASGYTFSDYYIHWVRQAPGQGLEWMGWVNPDTGGTRYAQKFQGRVTMTRDMSISTAYMELSRLRSDDTAVYYCARDLTGFDPFDIWGQGTLVTVSS
VL: SSVLTQPPSVSVAPGKTARITCGGNNFRNKRVHWYQQKPGQAPVLVIYYDSDRPSGIPERFSGSRSGNTATLTISRVEAGDEADYYCQVWDLFNDNGVFGGGTKLTVLG
B13: 166G05 IgG (germlined) (antibody, V domains shown)
VH: B12 VH
VL: B12 VL with L92F, F93L, N94T, N96S, V98S

Target: rat IL-22 (rat)
Assay: SPR (BIA)

binding, binds:
B1

Target: monkey IL-22 (monkey)
Assay: SPR (BIA)

binding, binds:
B1

Target: rat IL-22 (rat)
Assay: ELISA: plate coated with 1 µg/ml antigen, IgG added at 1 µg/ml, HRP goat anti-human IgG, A450

binding, binds:
B2, B3, B4, B5

Target: human IL-22 (human)
Assay: as above

binding, binds:
B6, B2, B7, B3, B4, B8, B9, B5, B10, B11, B12, B13

Target: rat IL-22 (rat)
Assay: real-time biospecific interaction analysis (BIA)

binding, binds:
B1

Target: monkey IL-22 (monkey)
Assay: real-time biospecific interaction analysis (BIA)

binding, binds:
B1
